Data: publication PMC8910471, “The Finely Coordinated Action of SSB and NurA/HerA Complex Strictly Regulates the DNA End Resection Process in Saccharolobus solfataricus”
The exact form of at least one protein or probe is not confirmed. For part of these data: The comparison behind a weaker result is the experiment's own reference, which may not be listed here. At least one verdict was read from the data and is not stated in words by the source. Protein sequences can lack the tags named with them.

Experiments:
[1] = target: T1, HerA (Saccharolobus solfataricus) (UniProt Q97WG8); assay: EMSA; settings: EMSA: 5 pmol fluorescent DNA in 10 ul, 20 mM HEPES/NaOH pH 7.5, 35 mM beta-mercaptoethanol, 500 mM NaCl, 10 min room temperature, recombinant protein, single-stranded DNA
T1 sequence (looked up, limits assumed): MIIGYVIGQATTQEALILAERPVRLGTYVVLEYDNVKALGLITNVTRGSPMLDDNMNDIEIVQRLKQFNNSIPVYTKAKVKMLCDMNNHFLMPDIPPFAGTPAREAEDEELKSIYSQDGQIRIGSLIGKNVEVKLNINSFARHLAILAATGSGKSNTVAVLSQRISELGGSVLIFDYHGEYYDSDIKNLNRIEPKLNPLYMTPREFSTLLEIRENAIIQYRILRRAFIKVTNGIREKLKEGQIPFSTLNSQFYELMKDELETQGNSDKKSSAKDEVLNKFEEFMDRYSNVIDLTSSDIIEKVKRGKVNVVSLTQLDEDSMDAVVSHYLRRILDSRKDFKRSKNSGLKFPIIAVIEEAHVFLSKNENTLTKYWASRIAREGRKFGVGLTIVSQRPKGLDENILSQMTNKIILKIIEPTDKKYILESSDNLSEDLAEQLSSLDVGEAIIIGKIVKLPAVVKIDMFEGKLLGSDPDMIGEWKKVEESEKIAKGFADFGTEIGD

[2] = target: T2, NurA (Saccharolobus solfataricus) (UniProt Q97WH1); assay: EMSA; settings: NurA alone, increasing amounts; EMSA: 5 pmol fluorescent DNA in 10 ul, 20 mM HEPES/NaOH pH 7.5, 35 mM beta-mercaptoethanol, 500 mM NaCl, 10 min room …; recombinant protein; single-stranded DNA
T2 sequence (looked up, limits assumed): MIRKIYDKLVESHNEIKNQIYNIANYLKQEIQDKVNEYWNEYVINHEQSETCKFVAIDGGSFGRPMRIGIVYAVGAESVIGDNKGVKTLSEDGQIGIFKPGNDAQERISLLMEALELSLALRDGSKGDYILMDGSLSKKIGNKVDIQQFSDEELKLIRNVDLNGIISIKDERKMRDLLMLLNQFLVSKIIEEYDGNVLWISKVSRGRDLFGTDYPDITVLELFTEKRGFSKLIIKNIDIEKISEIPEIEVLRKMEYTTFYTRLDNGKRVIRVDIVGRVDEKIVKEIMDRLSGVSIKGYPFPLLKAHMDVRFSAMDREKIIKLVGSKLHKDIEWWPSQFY

[3] = in NurA/HerA with SSB: HerA binding reduced

Sequence | binding result [1, 3] | binding result ([1]; in NurA/HerA with 1.5 pmol SSB: HerA-bound DNA reduced) | binding result ([1]; with SSB: HerA shift reduced) | binding result [2]
CGTGACTTGATGTTAACCCTAACCCTAAGAATTCGGCTTAAGTGAGTGTGAGGATATCATGTACGATAGC [70 leadCy5 (70 mer)] | binds more weakly | – | – | –
GCCGTGATCACCAATGCAGATTGACGAACCTTTGCCCACGT [40 merCy3] | binds more weakly | – | – | –
GCTATCGTACATGATATCCTC [21 merTAMRA] | binds more weakly | – | – | –
GTTTTCCCAGTCACGAC [17 merTAMRA] | – | binds more weakly | binds more weakly | binds
